Binding data for 1 molecule are collected here from US20090117126A1.

Results are given in words; binding and its absence hold for the method and conditions named. Some results given as binding are weak or reduced against the parent protein; the word gives no strength.

For this test, the target named is T1, recombinant human IL-17 (human) (UniProt Q16552).
T1 sequence (looked up): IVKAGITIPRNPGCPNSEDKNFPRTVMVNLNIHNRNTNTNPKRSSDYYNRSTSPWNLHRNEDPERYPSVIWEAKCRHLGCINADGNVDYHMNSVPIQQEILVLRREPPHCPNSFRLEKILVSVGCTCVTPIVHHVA
As to the kind of experiment: ELISA, primary screen of hybridomas. Background: ELISA stands for enzyme-linked immunosorbent assay.

B1: murine monoclonal antibody IL-17F4.100 (antibody, V domains shown)
VH: QVQLKESGPGLVAPSQSLSITCTVSGFSLTTYGVHWIRQPPGKGLEWLVVIWSDGYTTYNSALKSRLSITKDNSKSQVFLKMNSLQTDDTAMYYCARNDGDYFYSMDYWGQGTSVTVSS
VL: DVVMTQTPLSLPVSLGDQASFSCRSSQSLVHSNGNTYLHWYLQKPGQSPKLLIYKVSNRFSGVPDRFSGSGSGTDFTLKISRVEAEDLGVYFCSQSTHVPTFGGGTKLEIKR
Consider B1, for which the binding entry was “binds”.
